# Source: PubChem BioAssay (NCATS)
# Values joined by “and” are separate entries in the source; they are usually repeats but may differ in a detail not shown here. Equal values may be shown once. Some of the results follow. Shown are side measurements of this screen, not its main read-out; they come without a call. The list favours compounds with an active or inconclusive main result. For some of these results: Potencies come from curve fits of mixed quality, noted in brackets.
# Legend:
# [1] = qHTS assay for small molecule antagonists of peroxisome proliferator-activated receptor gamma signaling (AID 588537); conditions: HEK293 PPARg-UAS-bla, beta-lactamase ratio, antagonist mode; measured here: W460 blue channel
# Summary of the method: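 Fluorescence at 460 and 530 nm (405 nm excitation) reported beta-lactamase cleavage of CCF4 after 2 h room-temperature loading. HEK293 reporter cells in 1% charcoal/dextran-treated FBS had received compound and rosiglitazone for 16 h.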
# [2] = qHTS assay for small molecule agonists of retinoid X receptor alpha signaling (AID 588544); conditions: HEK293T RXRa-UAS-bla, beta-lactamase reporter, 18 h; 530 nm emission
# [3] = qHTS assay for small molecule antagonists of vitamin D receptor signaling (AID 588541); conditions: HEK293T VDR-UAS-bla, beta-lactamase ratio, antagonist mode; measured here: W460 blue channel (cell viability)
# [4] = qHTS assay for small molecule antagonists of retinoid X receptor alpha signaling (AID 588546); conditions: HEK293T RXRa-UAS-bla, beta-lactamase ratio, antagonist mode; measured here: W530 green channel, cytotoxicity proxy;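 note: cells stimulated with 9-cis-retinoic acid as agonist; % is set by controls: 0 for no effect and ±100 for the full control effect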
# Summary of the method: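 Beta-lactamase reporter inhibition, read as CCF4 fluorescence ratio (ex 405, em 460/530 nm) after 2 h at RT. HEK293T UAS-bla cells, 2500/well, were stimulated with 9-cis-RA at 500 or 100 nM final alongside test compound for 18 h at 37 C.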
structure (smiles),measurement,setting,value
CCCOCC(C)OCC(C)O (stereo unspecified),AC50,[1],"50.1 µM [rising, single point]"
CCCCCCCCCCO,AC50,[1],"0.0398 µM [falling, full curve, poor fit]"
CC(=O)OCc1ccco1,AC50,[1],"50.1 µM [rising, single point]"
CCCC=O,AC50,[1],"31.6 µM [rising, single point]"
Cc1cc(C2(c3cc(C)c(O)cc3C)OS(=O)(=O)c3ccccc32)c(C)cc1O,AC50,[1],"50.1 µM [rising, single point]"
CCCCCCCCCCCCOS(=O)(=O)O,AC50,[1],"25.1 µM [falling, partial curve, poor fit]"
ICCc1ccccc1,AC50,[1],"63.1 µM [rising, single point]"
O=C(O)c1ccc2c(c1)C(=O)OC2=O,AC50,[1],"1.58 µM [falling, full curve, poor fit]"
CC(C)(C)c1ccc(C(=O)O)cc1,AC50,[1],"0.0282 µM [falling, full curve, poor fit]"
CC(C)c1ccc(C(C)C)cc1,AC50,[1],"0.00178 µM [falling, full curve, poor fit]"
COc1ccc([N+](=O)[O-])cc1N,AC50,[1],"50.1 µM [rising, single point] and 3.16 nM [falling, full curve, poor fit]"
CC1(C)CC(N=C=O)CC(C)(CN=C=O)C1 (stereo unspecified),AC50,[1],"50.1 µM [rising, single point]"
Oc1ccc2c(c1)OCO2,AC50,[1],"12.6 µM [falling, partial curve, poor fit]"
OCc1cccc(Oc2ccccc2)c1,AC50,[1],"0.00141 µM [falling, full curve, poor fit]"
C=CCCCCCCCCC(=O)O,AC50,[1],"44.7 µM [falling, partial curve, poor fit]"
c1ccc2c(c1)ccc1ncccc12,AC50,[1],"63.1 µM [rising, single point]"
Cc1ccc(C(C)C)c(O)c1,AC50,[1],"0.0282 µM [falling, full curve, poor fit]"
CCCN(CCC)C(=O)SCC,AC50,[1],"70.8 µM [rising, single point]"
c1c[nH]cn1,AC50,[1],"50.1 µM [rising, single point]"
O=NO,AC50,[1],"50.1 µM [rising, single point]"
Cc1cc(-c2ccc(N=Nc3cc(S(=O)(=O)O)c4ccccc4c3N)c(C)c2)ccc1N=Nc1cc(S(=O)(=O)O)c2ccccc2c1N,AC50,[1],"44.7 µM [falling, partial curve]"
C=CCc1ccc(O)c(OC)c1,AC50,[1],"70.8 µM [rising, single point]"
ClCCl,AC50,[1],"50.1 µM [rising, single point]"
C=C(C#N)C(=O)OCC,AC50,[1],"70.8 µM [rising, single point]"
CCOCCOCCOC(C)=O,AC50,[1],"0.0501 µM [falling, full curve, poor fit]"
Cc1ccc(C)o1,AC50,[1],"50.1 µM [rising, single point]"
CCCCCCCOC(=O)c1ccccc1C(=O)OCCCCCCC,AC50,[1],"0.00112 µM [falling, full curve, poor fit]"
CC(=O)c1ccc(Cl)c(Cl)c1Cl,AC50,[1],"25.1 µM [falling, partial curve, poor fit]"
CC(C)CCCCCCCCCCCCCCC(=O)O,AC50,[1],"0.00316 µM [falling, full curve, poor fit]"
C=CCCCCCCCCCC,AC50,[1],"0.00158 µM [falling, full curve, poor fit]"
CCCCC(CC)COP(=O)(O)OCC(CC)CCCC (stereo unspecified),AC50,[1],"28.2 µM [falling, partial curve]"
same,max response,[2],3.92%
Nc1nc(-c2ccccc2)cs1,AC50,[1],"28.2 µM [falling, full curve, poor fit]"
CCCCOCC(C)O (stereo unspecified),AC50,[1],"2.51 µM [falling, full curve, poor fit]"
same,AC50,[3],"251 µM [rising, full curve, poor fit] and 50.1 µM [rising, single point]"
same,max response,[2],21.1%
C[C@H](CCC(=O)O)[C@H]1CC[C@H]2[C@@H]3[C@H](O)C[C@@H]4C[C@H](O)CC[C@]4(C)[C@H]3C[C@H](O)[C@]12C,AC50,[1],"50.1 µM [rising, single point]"
O=Cc1ccc(CO)o1,AC50,[1],"70.8 µM [rising, single point]"
O=C(O)CNC(=O)c1ccc([N+](=O)[O-])cc1,AC50,[1],"70.8 µM [rising, single point]"
CCCCC/C=C\C/C=C\CCCCCCCC(=O)O,AC50,[1],"50.1 µM [rising, single point]"
same,AC50,[3],"3.98 µM [rising, full curve, poor fit]"
same,max response,[2],5.63%
same,max response,[4],-42.1%
CCC=O,AC50,[1],"50.1 µM [rising, single point]"
Cc1c(Cl)cccc1Cl,AC50,[1],"0.0141 µM [falling, full curve, poor fit]"
CC(=O)CC(C)C,AC50,[1],"50.1 µM [rising, single point]"
O=C(Cl)c1cccc([N+](=O)[O-])c1,AC50,[1],"70.8 µM [rising, single point]"
CN(CCO)CC(O)Cn1cnc2c1c(=O)n(C)c(=O)n2C (stereo unspecified) (tested in a mixture with another compound),AC50,[1],"0.00158 µM [falling, full curve, poor fit]"
COc1nc(C)nc(NC(=O)NS(=O)(=O)c2ccccc2OCCCl)n1,AC50,[1],"50.1 µM [falling, single point]"
same,max response,[2],11.2%
CCC(=O)OCCc1ccccc1,AC50,[1],"0.00126 µM [falling, full curve, poor fit]"
CCCC(O)C(CC)CO (stereo unspecified),AC50,[1],"63.1 µM [rising, single point]"
COc1ccc(N=[N+]([O-])c2ccc(OC)cc2)cc1,AC50,[1],"50.1 µM [falling, partial curve, poor fit]"
same,max response,[2],-13.3%
CCCCC(CC)COC(=O)COc1ccc(Cl)cc1Cl (stereo unspecified),AC50,[1],"50.1 µM [rising, single point] and 5.01 nM [falling, full curve, poor fit]"
OC[C@H]1O[C@@H]2O[C@H]3[C@H](O)[C@@H](O)[C@@H](O[C@H]4[C@H](O)[C@@H](O)[C@@H](O[C@H]5[C@H](O)[C@@H](O)[C@@H](O[C@H]6[C@H](O)[C@@H](O)[C@@H](O[C@H]7[C@H](O)[C@@H](O)[C@@H](O[C@H]1[C@H](O)[C@H]2O)O[C@@H]7CO)O[C@@H]6CO)O[C@@H]5CO)O[C@@H]4CO)O[C@@H]3CO,AC50,[1],"50.1 µM [rising, single point]"
CCCCCCCCCCCCCC(=O)O,AC50,[1],"50.1 µM [rising, single point]"
CCCCCCCCCCCCOCC1CO1 (stereo unspecified),AC50,[1],"63.1 µM [rising, single point]"
same,AC50,[3],"0.0282 µM [falling, full curve, poor fit]"
same,max response,[4],-15.6%
O=[N+]([O-])c1ccc(F)cc1F,AC50,[1],"50.1 µM [rising, single point]"

# As a working copy, part of the list above.
structure (smiles),measurement,setting,value
CCCCCCCCCCCCCC(=O)O,AC50,[1],"50.1 µM [rising, single point]"
CCCCCCCCCCCCOCC1CO1 (stereo unspecified),AC50,[1],"63.1 µM [rising, single point]"
same,AC50,[3],"0.0282 µM [falling, full curve, poor fit]"
same,max response,[4],-15.6%
O=[N+]([O-])c1ccc(F)cc1F,AC50,[1],"50.1 µM [rising, single point]"
